Data: publication PMC3559379

By UniProt entry, the sequences of proteins in these tests, tags left out. Where a name states a change or a piece, a line headed by the entry shows the natural chain unless it says otherwise.
UniProt M9PGC5: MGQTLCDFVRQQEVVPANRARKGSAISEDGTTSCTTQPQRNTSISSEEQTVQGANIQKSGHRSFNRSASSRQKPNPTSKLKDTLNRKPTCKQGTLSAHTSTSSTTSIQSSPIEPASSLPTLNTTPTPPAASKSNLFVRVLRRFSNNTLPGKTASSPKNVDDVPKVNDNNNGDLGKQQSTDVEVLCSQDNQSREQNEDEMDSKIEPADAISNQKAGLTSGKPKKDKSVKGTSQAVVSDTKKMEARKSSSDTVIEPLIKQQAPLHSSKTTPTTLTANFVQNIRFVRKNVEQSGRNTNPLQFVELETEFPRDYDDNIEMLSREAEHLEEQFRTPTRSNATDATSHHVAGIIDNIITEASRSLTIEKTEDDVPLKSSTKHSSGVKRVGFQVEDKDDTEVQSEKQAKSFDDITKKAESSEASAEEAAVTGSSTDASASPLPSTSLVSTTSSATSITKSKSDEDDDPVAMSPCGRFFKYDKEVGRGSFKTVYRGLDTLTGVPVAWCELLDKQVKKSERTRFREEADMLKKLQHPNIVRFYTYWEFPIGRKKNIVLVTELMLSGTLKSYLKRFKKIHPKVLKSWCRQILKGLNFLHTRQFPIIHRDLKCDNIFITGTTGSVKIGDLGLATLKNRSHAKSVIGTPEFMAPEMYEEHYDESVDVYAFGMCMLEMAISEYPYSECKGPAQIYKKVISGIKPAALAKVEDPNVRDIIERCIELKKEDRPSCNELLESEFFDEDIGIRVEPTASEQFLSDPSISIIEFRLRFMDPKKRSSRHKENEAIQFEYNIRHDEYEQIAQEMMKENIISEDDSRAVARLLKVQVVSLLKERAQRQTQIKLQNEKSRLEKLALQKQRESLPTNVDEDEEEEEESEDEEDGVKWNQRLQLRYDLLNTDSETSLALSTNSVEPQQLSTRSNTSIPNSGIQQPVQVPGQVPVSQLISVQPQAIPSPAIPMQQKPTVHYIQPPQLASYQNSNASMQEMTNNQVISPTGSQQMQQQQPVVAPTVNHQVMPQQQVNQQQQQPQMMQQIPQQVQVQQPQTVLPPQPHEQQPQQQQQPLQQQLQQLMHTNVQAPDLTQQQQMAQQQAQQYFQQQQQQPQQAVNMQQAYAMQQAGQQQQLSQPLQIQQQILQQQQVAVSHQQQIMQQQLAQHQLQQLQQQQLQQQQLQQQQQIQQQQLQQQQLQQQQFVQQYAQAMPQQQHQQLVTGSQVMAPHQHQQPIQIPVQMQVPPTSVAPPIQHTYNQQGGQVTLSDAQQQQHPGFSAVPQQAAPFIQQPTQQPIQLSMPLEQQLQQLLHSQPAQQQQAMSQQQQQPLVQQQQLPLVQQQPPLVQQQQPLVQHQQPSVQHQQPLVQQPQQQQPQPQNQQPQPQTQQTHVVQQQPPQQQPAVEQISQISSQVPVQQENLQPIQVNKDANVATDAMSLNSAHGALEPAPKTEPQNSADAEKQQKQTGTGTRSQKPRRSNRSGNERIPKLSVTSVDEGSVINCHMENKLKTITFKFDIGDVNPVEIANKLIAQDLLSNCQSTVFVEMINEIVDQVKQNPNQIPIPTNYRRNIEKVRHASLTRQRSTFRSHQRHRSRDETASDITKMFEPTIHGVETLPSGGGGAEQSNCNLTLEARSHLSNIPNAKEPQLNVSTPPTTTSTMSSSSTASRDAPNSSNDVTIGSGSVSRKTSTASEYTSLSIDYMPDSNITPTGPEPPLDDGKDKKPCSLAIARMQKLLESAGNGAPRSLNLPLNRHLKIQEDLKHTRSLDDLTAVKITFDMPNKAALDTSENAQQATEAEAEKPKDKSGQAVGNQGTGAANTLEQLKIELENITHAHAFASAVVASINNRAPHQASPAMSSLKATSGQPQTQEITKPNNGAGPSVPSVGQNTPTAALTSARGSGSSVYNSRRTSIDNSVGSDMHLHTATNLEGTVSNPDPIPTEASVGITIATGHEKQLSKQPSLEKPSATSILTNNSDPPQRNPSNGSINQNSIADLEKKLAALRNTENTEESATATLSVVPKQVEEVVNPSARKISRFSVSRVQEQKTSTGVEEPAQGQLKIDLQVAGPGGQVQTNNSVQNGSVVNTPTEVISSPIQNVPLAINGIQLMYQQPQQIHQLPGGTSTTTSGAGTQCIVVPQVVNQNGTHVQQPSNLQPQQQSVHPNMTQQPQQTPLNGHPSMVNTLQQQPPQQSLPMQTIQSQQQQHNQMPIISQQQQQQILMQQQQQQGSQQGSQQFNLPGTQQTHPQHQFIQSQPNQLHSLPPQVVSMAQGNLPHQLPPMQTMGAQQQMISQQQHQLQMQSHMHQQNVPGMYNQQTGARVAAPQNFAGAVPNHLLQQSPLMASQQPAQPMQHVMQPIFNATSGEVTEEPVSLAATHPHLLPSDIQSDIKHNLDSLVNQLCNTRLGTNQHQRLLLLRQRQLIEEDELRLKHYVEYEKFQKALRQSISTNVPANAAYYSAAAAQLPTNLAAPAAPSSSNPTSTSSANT

Target: Drosophila WNK (HA-DWNK) (Drosophila) (UniProt M9PGC5)
Assay: co-IP; HA-DWNK and T7-Fray transiently co-expressed in HEK293T cells; cell extracts immunoprecipitated with HA antibody, then immunoblotting

B1: Drosophila Fray (T7-Fray) (enzyme, UniProt Q9VE62 1-552)
chain: MTSIPANLSSNNVAGAATLPGAAAPPEKYTWPNSKDDYELRDVIGVGATAVVHGAYCIPRNEKCAIKRINLEKWNTSMDELLKEIQAMSSCFHENVVTYHTSFVVREELWLVLRLLEGGSLLDIIKHKMRTSNCKQGVFDEATIATVLKEVLKGLEYFHSNGQIHRDIKAGNILIGDDGTIQIADFGVSAWLATGRDLSRQKVRHTFVGTPCWMAPEVMEQDHGYDFKADIWSFGITAIEMATGTAPYHKYPPMKVLMLTLQNDPPTLDTGADDKDQYKAYGKTFRKMIVECLQKEPSKRPTASELLKHAFFKKAKDRKYLTQTLLQSGPSMETRVHKAAKRQPGASGRLHRTVTGEWVWSSEEEDNGGSATGSGTGDRKHPSSDSDSEDRPMNRLERADSSDSDREEPSPEITHSVSSATVTSGAPAAAGAGAAQELTAGIAQLPLPSEAAGEAPPVNLVLRMRNLRRELHDIRFEFVVGKDTAEGIATELVDAGLVDALDTQPMATHLDQLIAASATMKTITFQLSSGVQPGEVPDERSLVGYAQISITD
For B1, the binding was “binds”.

No constants are given. Whether binding was seen depends on the method and setting. Binding seen in cells or lysates may run through a third protein. Binding can be weak; no strength is given.
